The other results are listed elsewhere or left out. The calls rarely recur for the same compound in another form.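 In K562 cells expressing nanoluciferase-fused kinases, luminescence was recorded at 4 h intervals between 2 and 18 h, normalized as percent of control with DMSO at 100% and a positive control at 0%. A significant (2 sigma) signal drop marks a time point as decreased. The authors' rule for a hit is not shown and takes in more than the number of time points.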
Columns and labels:
Details in all cases: K562; 2-18 h
STK38 = STK38 (UniProt Q15208); assay: kinase-Nluc reporter destabilization hit call (1 = scored as downregulated) (binary); higher = compound decreases kinase abundance
SYK = SYK (UniProt P43405); assay: as above
TEC = TEC (UniProt P42680); assay: as above
TYK2 = TYK2 (UniProt P29597); assay: as above
ULK3 = ULK3 (UniProt Q6PHR2); assay: as above
YES1 = YES1 (UniProt P07947); assay: as above
ZAK = ZAK (UniProt Q9NYL2); assay: as above
ZAP70 = ZAP70 (UniProt P43403); assay: as above
ABL1 = ABL1 (UniProt P00519); assay: number of time points (of 5) at which kinase-Nluc abundance scored as decreased, DMSO-normalised (count); higher = more persistent destabilization
AKT1 = AKT1 (UniProt P31749); assay: as above

By UniProt entry, the sequences of proteins in these tests, tags left out. Where a name states a change or a piece, a line headed by the entry shows the natural chain unless it says otherwise.
UniProt Q15208: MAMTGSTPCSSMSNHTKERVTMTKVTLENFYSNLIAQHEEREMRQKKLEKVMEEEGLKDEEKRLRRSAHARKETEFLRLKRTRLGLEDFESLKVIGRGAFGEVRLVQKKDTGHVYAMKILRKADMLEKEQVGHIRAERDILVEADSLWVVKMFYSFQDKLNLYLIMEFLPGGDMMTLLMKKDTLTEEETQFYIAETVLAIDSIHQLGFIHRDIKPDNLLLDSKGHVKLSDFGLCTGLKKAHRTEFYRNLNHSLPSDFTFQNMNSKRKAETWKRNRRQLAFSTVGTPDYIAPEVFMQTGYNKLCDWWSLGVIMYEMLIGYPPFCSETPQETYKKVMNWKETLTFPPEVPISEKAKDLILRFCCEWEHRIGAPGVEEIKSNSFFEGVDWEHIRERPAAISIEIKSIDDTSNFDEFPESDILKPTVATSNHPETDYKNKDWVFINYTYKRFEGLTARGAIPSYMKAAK
UniProt P42680: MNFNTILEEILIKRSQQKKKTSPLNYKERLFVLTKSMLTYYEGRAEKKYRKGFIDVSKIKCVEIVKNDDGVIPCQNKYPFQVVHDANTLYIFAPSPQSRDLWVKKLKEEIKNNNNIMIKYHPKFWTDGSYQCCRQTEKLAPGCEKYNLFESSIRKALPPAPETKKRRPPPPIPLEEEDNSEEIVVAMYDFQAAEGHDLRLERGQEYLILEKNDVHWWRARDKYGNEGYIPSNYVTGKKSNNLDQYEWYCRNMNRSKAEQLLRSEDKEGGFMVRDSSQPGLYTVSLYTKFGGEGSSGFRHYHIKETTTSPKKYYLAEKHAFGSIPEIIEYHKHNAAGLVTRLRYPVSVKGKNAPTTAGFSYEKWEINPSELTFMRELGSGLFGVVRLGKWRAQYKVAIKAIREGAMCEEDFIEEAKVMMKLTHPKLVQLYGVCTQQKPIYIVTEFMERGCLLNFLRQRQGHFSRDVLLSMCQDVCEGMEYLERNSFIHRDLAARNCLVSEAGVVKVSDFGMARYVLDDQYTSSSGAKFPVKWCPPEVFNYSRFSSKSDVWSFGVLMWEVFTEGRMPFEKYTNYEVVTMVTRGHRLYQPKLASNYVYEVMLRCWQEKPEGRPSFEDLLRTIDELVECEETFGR
UniProt P29597: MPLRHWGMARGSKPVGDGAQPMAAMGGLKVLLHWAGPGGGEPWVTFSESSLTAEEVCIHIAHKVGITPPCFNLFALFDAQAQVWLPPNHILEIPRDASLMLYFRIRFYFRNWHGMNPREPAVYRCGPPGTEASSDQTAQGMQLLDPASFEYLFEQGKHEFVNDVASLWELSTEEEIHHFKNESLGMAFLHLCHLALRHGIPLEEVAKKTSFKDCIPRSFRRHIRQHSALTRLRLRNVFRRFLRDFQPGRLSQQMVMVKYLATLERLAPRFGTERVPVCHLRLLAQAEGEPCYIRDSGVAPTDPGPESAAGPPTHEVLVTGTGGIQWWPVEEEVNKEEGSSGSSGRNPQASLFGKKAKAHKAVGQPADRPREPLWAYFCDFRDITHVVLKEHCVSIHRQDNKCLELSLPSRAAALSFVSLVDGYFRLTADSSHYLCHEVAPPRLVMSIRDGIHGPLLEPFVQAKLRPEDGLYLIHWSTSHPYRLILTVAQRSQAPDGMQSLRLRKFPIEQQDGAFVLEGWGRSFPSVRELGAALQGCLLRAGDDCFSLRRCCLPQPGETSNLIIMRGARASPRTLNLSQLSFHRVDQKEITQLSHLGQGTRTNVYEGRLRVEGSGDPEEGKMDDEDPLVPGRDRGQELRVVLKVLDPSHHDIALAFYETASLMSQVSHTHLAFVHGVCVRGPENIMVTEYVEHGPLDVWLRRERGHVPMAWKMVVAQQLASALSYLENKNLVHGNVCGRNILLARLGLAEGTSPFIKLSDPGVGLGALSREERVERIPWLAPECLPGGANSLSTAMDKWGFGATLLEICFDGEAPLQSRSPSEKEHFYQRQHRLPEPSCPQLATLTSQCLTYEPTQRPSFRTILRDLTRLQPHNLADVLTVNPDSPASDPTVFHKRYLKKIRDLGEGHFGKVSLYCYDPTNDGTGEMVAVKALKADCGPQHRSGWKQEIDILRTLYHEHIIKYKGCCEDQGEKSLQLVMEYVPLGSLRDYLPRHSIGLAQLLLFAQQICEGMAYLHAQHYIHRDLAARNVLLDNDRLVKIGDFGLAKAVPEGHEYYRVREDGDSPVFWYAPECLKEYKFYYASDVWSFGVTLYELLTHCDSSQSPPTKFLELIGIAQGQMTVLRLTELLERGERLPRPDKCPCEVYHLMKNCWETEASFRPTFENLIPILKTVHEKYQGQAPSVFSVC
UniProt Q6PHR2: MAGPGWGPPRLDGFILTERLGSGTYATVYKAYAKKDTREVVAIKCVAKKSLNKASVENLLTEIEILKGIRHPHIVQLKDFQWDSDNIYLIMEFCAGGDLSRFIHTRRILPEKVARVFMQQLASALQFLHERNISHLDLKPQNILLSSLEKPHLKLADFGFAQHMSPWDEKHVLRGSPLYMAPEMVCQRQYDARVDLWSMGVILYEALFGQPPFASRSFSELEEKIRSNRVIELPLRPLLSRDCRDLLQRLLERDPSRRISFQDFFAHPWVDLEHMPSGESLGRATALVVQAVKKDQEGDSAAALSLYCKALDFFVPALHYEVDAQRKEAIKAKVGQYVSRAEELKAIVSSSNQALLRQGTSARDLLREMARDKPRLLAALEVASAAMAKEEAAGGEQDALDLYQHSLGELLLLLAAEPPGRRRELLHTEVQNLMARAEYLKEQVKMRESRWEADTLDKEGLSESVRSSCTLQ
UniProt P07947, whole entry, looked up: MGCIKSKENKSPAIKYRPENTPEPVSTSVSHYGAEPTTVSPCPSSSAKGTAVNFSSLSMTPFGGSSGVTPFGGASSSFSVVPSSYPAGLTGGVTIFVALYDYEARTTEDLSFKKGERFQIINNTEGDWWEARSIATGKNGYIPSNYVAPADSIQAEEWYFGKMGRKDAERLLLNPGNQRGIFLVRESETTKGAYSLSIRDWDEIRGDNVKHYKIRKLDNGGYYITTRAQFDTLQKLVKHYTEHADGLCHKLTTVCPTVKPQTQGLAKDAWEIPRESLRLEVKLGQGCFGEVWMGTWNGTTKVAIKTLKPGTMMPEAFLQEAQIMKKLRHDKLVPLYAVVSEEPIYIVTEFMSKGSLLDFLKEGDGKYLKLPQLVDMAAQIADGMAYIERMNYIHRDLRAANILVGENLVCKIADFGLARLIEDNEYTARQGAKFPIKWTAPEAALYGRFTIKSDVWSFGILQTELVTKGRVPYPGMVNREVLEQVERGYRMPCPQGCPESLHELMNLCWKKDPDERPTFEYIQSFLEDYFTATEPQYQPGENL
UniProt P43403: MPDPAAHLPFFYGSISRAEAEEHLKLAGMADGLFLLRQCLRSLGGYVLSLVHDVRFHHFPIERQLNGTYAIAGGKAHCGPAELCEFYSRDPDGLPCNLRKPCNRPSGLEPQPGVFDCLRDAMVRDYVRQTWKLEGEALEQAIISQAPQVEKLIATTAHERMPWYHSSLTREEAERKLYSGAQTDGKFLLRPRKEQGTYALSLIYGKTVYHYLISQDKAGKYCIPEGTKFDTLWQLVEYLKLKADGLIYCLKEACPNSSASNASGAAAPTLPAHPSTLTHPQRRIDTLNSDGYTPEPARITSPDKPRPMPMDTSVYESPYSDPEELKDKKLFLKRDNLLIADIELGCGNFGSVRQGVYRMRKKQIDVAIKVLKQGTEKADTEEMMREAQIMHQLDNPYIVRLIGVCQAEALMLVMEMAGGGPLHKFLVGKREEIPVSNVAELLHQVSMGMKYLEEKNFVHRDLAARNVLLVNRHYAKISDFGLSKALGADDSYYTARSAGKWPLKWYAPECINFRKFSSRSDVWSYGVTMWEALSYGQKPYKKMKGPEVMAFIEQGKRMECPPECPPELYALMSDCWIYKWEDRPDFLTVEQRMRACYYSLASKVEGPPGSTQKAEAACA
UniProt P00519, whole entry: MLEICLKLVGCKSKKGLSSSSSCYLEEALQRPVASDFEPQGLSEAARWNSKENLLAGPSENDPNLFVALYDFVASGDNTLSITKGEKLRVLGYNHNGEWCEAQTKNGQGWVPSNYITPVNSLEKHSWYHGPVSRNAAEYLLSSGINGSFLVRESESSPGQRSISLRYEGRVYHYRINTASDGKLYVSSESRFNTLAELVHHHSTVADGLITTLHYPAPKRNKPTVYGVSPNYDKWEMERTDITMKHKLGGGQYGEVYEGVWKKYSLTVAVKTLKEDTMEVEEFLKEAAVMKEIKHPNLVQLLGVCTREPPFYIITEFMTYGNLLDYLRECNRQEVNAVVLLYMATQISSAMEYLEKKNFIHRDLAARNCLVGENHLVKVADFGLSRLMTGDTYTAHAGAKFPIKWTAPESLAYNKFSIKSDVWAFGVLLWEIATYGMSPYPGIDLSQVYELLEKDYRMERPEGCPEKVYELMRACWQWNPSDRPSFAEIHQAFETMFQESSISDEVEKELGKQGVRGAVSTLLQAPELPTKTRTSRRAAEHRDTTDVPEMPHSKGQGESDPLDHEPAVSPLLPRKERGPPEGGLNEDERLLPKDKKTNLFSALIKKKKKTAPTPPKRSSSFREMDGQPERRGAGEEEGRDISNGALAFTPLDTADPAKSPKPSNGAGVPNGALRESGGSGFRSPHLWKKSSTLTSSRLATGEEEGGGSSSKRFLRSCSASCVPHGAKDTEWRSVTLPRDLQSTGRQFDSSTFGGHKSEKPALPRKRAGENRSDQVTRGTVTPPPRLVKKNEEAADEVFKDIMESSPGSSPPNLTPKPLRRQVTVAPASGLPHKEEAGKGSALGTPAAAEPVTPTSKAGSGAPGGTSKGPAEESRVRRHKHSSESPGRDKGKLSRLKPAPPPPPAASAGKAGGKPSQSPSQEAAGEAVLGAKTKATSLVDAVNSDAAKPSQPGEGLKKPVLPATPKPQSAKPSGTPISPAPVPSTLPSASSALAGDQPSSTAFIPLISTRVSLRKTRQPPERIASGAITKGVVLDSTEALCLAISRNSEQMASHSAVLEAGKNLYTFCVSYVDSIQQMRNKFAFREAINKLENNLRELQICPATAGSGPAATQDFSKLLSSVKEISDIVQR
UniProt P31749: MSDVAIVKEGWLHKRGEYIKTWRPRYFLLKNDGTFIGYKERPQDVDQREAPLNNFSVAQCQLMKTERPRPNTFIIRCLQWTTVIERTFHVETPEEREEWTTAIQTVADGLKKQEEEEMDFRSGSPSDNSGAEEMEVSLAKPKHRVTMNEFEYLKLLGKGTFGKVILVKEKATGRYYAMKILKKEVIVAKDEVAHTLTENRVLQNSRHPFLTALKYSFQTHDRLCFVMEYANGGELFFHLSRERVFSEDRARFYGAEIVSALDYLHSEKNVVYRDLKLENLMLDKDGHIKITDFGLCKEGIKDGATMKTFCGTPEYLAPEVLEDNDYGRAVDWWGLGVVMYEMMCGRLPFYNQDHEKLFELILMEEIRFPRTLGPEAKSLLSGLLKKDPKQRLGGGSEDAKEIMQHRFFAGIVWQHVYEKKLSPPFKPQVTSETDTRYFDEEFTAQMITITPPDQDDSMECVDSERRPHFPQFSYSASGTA

| Compound | kinase-Nluc reporter destabilization hit call (STK38) | kinase-Nluc reporter destabilization hit call (SYK) | kinase-Nluc reporter destabilization hit call (TEC) | kinase-Nluc reporter destabilization hit call (TYK2) | kinase-Nluc reporter destabilization hit call (ULK3) | kinase-Nluc reporter destabilization hit call (YES1) | kinase-Nluc reporter destabilization hit call (ZAK) | kinase-Nluc reporter destabilization hit call (ZAP70) | number of time points (ABL1) | number of time points (AKT1) |
| --- | --- | --- | --- | --- | --- | --- | --- | --- | --- | --- |
| CN1C(=O)[C@@H](NC(=O)c2cc(Cc3ccccc3)on2)COc2ccccc21 (10 µM) | inactive: 0 | inactive: 0 | inactive: 0 | inactive: 0 | inactive: 0 | inactive: 0 | inactive: 0 | inactive: 0 | 0 | 0 |
| O=C(NC[C@H](O)CO)c1ccncc1Nc1ccc(I)cc1F [Pimasertib] (10 µM) | inactive: 0 | inactive: 0 | inactive: 0 | inactive: 0 | inactive: 0 | inactive: 0 | inactive: 0 | inactive: 0 | 0 | 0 |
| CNC(=O)CN1CCC(Oc2cc3c(Nc4cccc(Cl)c4F)ncnc3cc2OC)CC1 [Sapitinib] (10 µM) | inactive: 0 | inactive: 0 | inactive: 0 | inactive: 0 | inactive: 0 | inactive: 0 | inactive: 0 | inactive: 0 | 0 | 0 |
| Nc1ccc(-c2nc3ccc(-c4nc5ccc(N)cc5[nH]4)cc3[nH]2)cc1 (10 µM) | inactive: 0 | inactive: 0 | inactive: 0 | inactive: 0 | inactive: 0 | inactive: 0 | inactive: 0 | inactive: 0 | 0 | 0 |
| COc1cc2nc(NC3CC3)nc(NC3CCN(C(C)C)CC3)c2cc1OC (10 µM) | inactive: 0 | inactive: 0 | inactive: 0 | inactive: 0 | inactive: 0 | inactive: 0 | inactive: 0 | inactive: 0 | 2 | 0 |
| Cn1cnc2c(F)c(Nc3ccc(Br)cc3F)c(C(=O)NOCCO)cc21 [Binimetinib] (10 µM) | inactive: 0 | inactive: 0 | inactive: 0 | inactive: 0 | inactive: 0 | inactive: 0 | inactive: 0 | inactive: 0 | 0 | 0 |
| O=c1cc(-c2ccc(O[C@@H]3O[C@H](CO)[C@@H](O)[C@H](O)[C@H]3O)cc2)oc2cc(O)c([C@@H]3O[C@H](CO)[C@@H](O)[C@H](O)[C@H]3O[C@@H]3OC[C@H](O)[C@H](O)[C@H]3O)c(O)c12 [Vaccarin] (10 µM) | inactive: 0 | inactive: 0 | inactive: 0 | inactive: 0 | inactive: 0 | inactive: 0 | inactive: 0 | inactive: 0 | 0 | 0 |
| O=S(=O)(c1ccc(O)cc1O)N1Cc2cc(O)cc(O)c2C1 (10 µM) | inactive: 0 | inactive: 0 | inactive: 0 | inactive: 0 | inactive: 0 | inactive: 0 | inactive: 0 | inactive: 0 | 0 | 0 |
| Cc1cc2c(F)c(Oc3ncnn4cc(OC[C@@H](C)OC(=O)[C@H](C)N)c(C)c34)ccc2[nH]1 [Brivanib (alaninate)] (10 µM) | inactive: 0 | inactive: 0 | inactive: 0 | inactive: 0 | inactive: 0 | inactive: 0 | inactive: 0 | inactive: 0 | 0 | 0 |
| CO/N=C1/C(c2c(O)[nH]c3cc(Cl)c(Cl)cc23)=Nc2ccccc21 (10 µM) | inactive: 0 | inactive: 0 | inactive: 0 | inactive: 0 | inactive: 0 | inactive: 0 | inactive: 0 | inactive: 0 | 0 | 0 |
| Nc1ccc(C(=O)Nc2cccc(-c3nc(N4CCOCC4)c4oc5ncccc5c4n3)c2)cn1 (10 µM) | inactive: 0 | inactive: 0 | inactive: 0 | inactive: 0 | inactive: 0 | inactive: 0 | inactive: 0 | inactive: 0 | 0 | 0 |
| O=c1c(O)c(-c2ccc(O)c(O)c2)oc2cc(O)c(O)c(O)c12 [Quercetagetin] (10 µM) | inactive: 0 | inactive: 0 | inactive: 0 | inactive: 0 | inactive: 0 | inactive: 0 | inactive: 0 | inactive: 0 | 0 | 0 |
| Cc1nc(NC(=O)N2CCC[C@H]2C(N)=O)sc1-c1ccnc(C(C)(C)C(F)(F)F)c1 [Alpelisib] (2.5 µM) | inactive: 0 | inactive: 0 | inactive: 0 | inactive: 0 | inactive: 0 | inactive: 0 | inactive: 0 | inactive: 0 | 0 | 0 |
| NC(=O)c1sc2c([N+](=O)[O-])cc(C(F)(F)F)cc2[n+]1[O-] [Cyclapolin 9] (10 µM) | inactive: 0 | inactive: 0 | inactive: 0 | inactive: 0 | inactive: 0 | inactive: 0 | inactive: 0 | inactive: 0 | 0 | 0 |
| CC(C)(CCCCCC(O)CCCCCC(C)(C)C(=O)O)C(=O)O [Bempedoic acid] (10 µM) | inactive: 0 | inactive: 0 | inactive: 0 | inactive: 0 | inactive: 0 | inactive: 0 | inactive: 0 | inactive: 0 | 0 | 0 |
